Results are given in words; binding and its absence hold for the method and conditions named. Binding seen in cells or lysates may run through a third protein. These calls come from enrichment with a bait or labelling near it, and not all partners need be listed. For some of these results: No binding means not detected with the bait. Where a sequence is shown, tags or fusion partners need not be part of it.
T1: MORC6-3xFlag (Arabidopsis thaliana) (UniProt Q56Y74)
T1 sequence: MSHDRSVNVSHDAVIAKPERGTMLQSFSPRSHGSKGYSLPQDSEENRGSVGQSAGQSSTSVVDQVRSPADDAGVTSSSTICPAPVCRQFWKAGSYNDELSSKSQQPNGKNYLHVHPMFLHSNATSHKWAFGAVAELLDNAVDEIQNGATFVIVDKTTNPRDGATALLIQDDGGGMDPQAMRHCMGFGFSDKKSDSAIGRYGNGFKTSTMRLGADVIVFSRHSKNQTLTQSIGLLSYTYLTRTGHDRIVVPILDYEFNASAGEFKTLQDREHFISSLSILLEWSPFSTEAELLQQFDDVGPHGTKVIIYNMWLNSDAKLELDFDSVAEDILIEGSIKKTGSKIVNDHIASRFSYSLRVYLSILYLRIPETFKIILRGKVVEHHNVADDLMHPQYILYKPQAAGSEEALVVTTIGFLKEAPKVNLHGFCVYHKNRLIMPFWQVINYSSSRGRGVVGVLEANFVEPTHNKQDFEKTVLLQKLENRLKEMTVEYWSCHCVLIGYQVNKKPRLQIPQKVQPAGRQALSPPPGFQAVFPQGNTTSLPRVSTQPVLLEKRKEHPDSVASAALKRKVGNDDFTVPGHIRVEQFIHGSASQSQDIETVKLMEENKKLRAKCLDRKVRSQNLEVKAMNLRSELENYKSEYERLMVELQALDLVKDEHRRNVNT

T2: SUVH2-3xMyc (Arabidopsis thaliana) (UniProt O22781)
T2 sequence: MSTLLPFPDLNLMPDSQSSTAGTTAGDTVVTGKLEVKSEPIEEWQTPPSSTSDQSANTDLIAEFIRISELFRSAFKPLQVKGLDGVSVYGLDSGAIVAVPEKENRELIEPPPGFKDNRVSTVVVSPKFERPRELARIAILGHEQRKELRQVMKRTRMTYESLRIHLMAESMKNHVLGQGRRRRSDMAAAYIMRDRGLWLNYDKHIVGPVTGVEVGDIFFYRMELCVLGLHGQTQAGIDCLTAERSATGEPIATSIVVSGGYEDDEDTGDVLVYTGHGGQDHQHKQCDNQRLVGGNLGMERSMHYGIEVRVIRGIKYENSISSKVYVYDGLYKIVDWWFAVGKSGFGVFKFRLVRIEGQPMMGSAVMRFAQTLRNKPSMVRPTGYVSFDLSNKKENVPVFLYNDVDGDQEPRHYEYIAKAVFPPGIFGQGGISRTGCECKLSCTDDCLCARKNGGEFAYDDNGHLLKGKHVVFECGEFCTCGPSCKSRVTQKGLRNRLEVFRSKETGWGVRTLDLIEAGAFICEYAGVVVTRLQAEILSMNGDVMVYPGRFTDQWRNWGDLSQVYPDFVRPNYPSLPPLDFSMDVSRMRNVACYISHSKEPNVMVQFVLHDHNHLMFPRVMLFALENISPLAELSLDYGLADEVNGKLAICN

B1: … IN RNA-DIRECTED DNA …ON 1 (DRD1), endogenous (protein, UniProt Q9SIW2 1-888)
chain: MGFVYIVMTGYYKNVHKRKQNQVDDGPEAKRVKSSAKVIDYSNPFAVSNMLEALDSGKFGSVSKELEEIADMRMDLVKRSIWLYPSLAYTVFEAEKTMDNQQVVEGVINLDDDDDDDTDVEKKALCVVPSSSEIVLLDSDDEDNERQRPMYQFQSTLVQHQKNQGDVTPLIPQCSFEEVDLGRGKEMPSAIKAIVEGQTSRGKVLPIENGVVNEKGVYVGVEEDDSDNESEAADEDLGNIWNEMALSIECSKDVARETSHKEKADVVEDCEHSFILKDDMGYVCRVCGVIEKSILEIIDVQFTKAKRNTRTYASETRTKRFGESDNELKFSEEGLMIGGLAAHPTHAAEMKPHQIEGFQFLCSNLVADDPGGCIMAHAPGSGKTFMIISFMQSFLAKYPQAKPLVVLPKGILPTWKKEFVRWQVEDIPLLDFYSAKAENRAQQLSILKQWMEKKSILFLGYQQFSTIVCDDTTDSLSCQEILLKVPSILILDEGHTPRNEDTNLLQSLAQVQTPRKVVLSGTLYQNHVKEVFNILNLVRPKFLKLDTSKSAVKRILAYTPCDVRGRLTGSNSDMASMFNETVEHTLQKSEDFTVKIKVIQDLREMTKKVLHYYKGDFLDELPGLADFTVVLNLSPKQLNEVKKLRREKRKFKVSAVGSAIYLHPKLKVFSDKSDDVSDTTMDEMVEKLDLNEGVKAKFFLNLINLCDSAGEKLLVFSQYLIPLKFLERLAALAKGWKLGKEVFVLTGNTSSEQREWSMETFNSSPDAKIFFGSIKACGEGISLVGASRILILDVPLNPSVTRQAIGRAFRPGQKKMVHAYRLIAGSSPEEEDHNTCFKKEVISKMWFEWNEYCGYQNFEVETIDVDEAGDTFLESPALREDIRVLYKR
B2: SUVH9, endogenous (protein, UniProt Q9T0G7 1-650)
chain: MGSSHIPLDPSLNPSPSLIPKLEPVTESTQNLAFQLPNTNPQALISSAVSDFNEATDFSSDYNTVAESARSAFAQRLQRHDDVAVLDSLTGAIVPVEENPEPEPNPYSTSDSSPSVATQRPRPQPRSSELVRITDVGPESERQFREHVRKTRMIYDSLRMFLMMEEAKRNGVGGRRARADGKAGKAGSMMRDCMLWMNRDKRIVGSIPGVQVGDIFFFRFELCVMGLHGHPQSGIDFLTGSLSSNGEPIATSVIVSGGYEDDDDQGDVIMYTGQGGQDRLGRQAEHQRLEGGNLAMERSMYYGIEVRVIRGLKYENEVSSRVYVYDGLFRIVDSWFDVGKSGFGVFKYRLERIEGQAEMGSSVLKFARTLKTNPLSVRPRGYINFDISNGKENVPVYLFNDIDSDQEPLYYEYLAQTSFPPGLFVQQSGNASGCDCVNGCGSGCLCEAKNSGEIAYDYNGTLIRQKPLIHECGSACQCPPSCRNRVTQKGLRNRLEVFRSLETGWGVRSLDVLHAGAFICEYAGVALTREQANILTMNGDTLVYPARFSSARWEDWGDLSQVLADFERPSYPDIPPVDFAMDVSKMRNVACYISHSTDPNVIVQFVLHDHNSLMFPRVMLFAAENIPPMTELSLDYGVVDDWNAKLAICN
B3: MORC1/CRT1, endogenous (protein, UniProt Q84WV6 1-635)
chain: MAKNYTVADVVNIDSDSDSDDDNGGVIGMVPSLASLIENQKVSIADAATVAPRETLECRSFWKAGENFVIPSSVTLTAIGMVEHARVHPKFLHSNATSHKWAFGAIAELLDNAVDEIQNGATVVKIDKINIVKDNTPALVFQDNGGGMDPNGIRKCMSLGYSSKKSNTTIGQYGNGFKTSTMRLGADAMVFSRSTRGGKSTQSIGLLSYTFLRKTGQDDVIVPMIDFDISSDSPQPIIYGSPGDWSTNLNILLKWSPFSTMVELLQQFEDIGTHGTKVIIYNLWLNDEGIYELSFDDDDVDIRLRDENAQDGKRLHAKTLEVRSHISYRYRHSLRAYISMLYLKKFKNFKIILRGVSVAQFNIADEFRHPETIMYKPQAAAVDYAATGIKVGFIKEAPKLPICGFNVYHKNRLIRPFWKVVLEGSTRGNGVMGVLEANFIEPAHDKQDFERSSLFLRLEARLKRITSDYWQNHCHIFGYQTAQIPADKSKRTVIPDQPPTVNTYNPSPLPSDRISHGGPIIREINLSNATSSRTAAVAAPHLRNYTGLRNNFQPVQLNPQPPAAGDTGNNLVGKLAAEIREENLQLFMRCEEYVKKENEVEQTVKSLEKELEEIKSKCAQLALLVDAKKKEMQQV
B4: MORC2, endogenous (protein, UniProt Q5FV35 1-626)
chain: MPPMAKNAAVTDVVHLDSDSDSDNGVVGGRESASTIAGAATMAPRETLECRSFWKAGDYFVIPNVVTPTAPGMLEHARVHPRFLHSNATSHKWAFGAIAELLDNAVDEIQNGATFVKIDKINIVKDNSPALVFQDDGGGMDPAGLRKCMSLGYSSKKSNTTIGQYGNGFKTSTMRLGADAIVFSRSTRGGTSTQSVGILSYTFLRKTGQDDVTVPMIDIDISKERPQPIIYGSPEDWAANLEILLKWSPFSTEDELLQQFEDVGTHGTKVIIYNLWLNDEGIYELSFDDDEEDIRLRDESVNDGKRLHHKILELRSHISYHLRYSLRAYASMLYLKKFKNFKIIIRGIPVEQFNIADGFRFPEIIKYKPHTATTEQASTEIKIGFVKEAPKLAICGFNVYHKNRLIRPFWKVTMGGDSTGHGVVGVLEANFIEPAHDKQDFERSSLFQRLEARLKKIVYSYWYSHCHLLGYHKYQMPADKSKKIAIPDQPPTISTVNPSPLPSDKISQGGPIIREINLSNATSSRTVAFASPHLRNSTGLRSNFQPVQLNPQPTAADTGNNLDGKSAGEIRQENLQLFMRCEEYIKKENETEQTVKSLEKELEEFKSKCAHLALLVDAKKKEMQQA
B5: CHB3/SWI3D, endogenous (protein, UniProt Q8VY05 1-985)
chain: MEEKRRDSAGTLAFAGSSGDSPASEPMPAPRRRGGGLKRKANALGGSNFFSSAPSKRMLTREKAMLASFSPVHNGPLTRARQAPSIMPSAADGVKSEVLNVAVGADGEKPKEEEERNKAIREWEALEAKIEADFEAIRSRDSNVHVVPNHCGWFSWEKIHPLEERSLPSFFNGKLEGRTSEVYREIRNWIMGKFHSNPNIQIELKDLTELEVGDSEAKQEVMEFLDYWGLINFHPFPPTDTGSTASDHDDLGDKESLLNSLYRFQVDEACPPLVHKPRFTAQATPSGLFPDPMAADELLKQEGPAVEYHCNSCSADCSRKRYHCPKQADFDLCTECFNSGKFSSDMSSSDFILMEPAEAPGVGSGKWTDQETLLLLEALEIFKENWNEIAEHVATKTKAQCMLHFLQMPIEDAFLDQIDYKDPISKDTTDLAVSKDDNSVLKDAPEEAENKKRVDEDETMKEVPEPEDGNEEKVSQESSKPGDASEETNEMEAEQKTPKLETAIEERCKDEADENIALKALTEAFEDVGHSSTPEASFSFADLGNPVMGLAAFLVRLAGSDVATASARASIKSLHSNSGMLLATRHCYILEDPPDNKKDPTKSKSCSADAEGNDDNSHKDDQPEEKSKKAEEVSLNSDDREMPDTDTGKETQDSVSEEKQPGSRTENSTTKLDAVQEKRSSKPVTTDNSEKPVDIICPSQDKCSGKELQEPLKDGNKLSSENKDASQSTVSQSAADASQPEASRDVEMKDTLQSEKDPEDVVKTVGEKVQLAKEEGANDVLSTPDKSVSQQPIGSASAPENGTAGGNPNIEGKKEKDICEGTKDKYNIEKLKRAAISAISAAAVKAKNLAKQEEDQIRQLSGSLIEKQLHKLEAKLSIFNEAESLTMRVREQLERSRQRLYHERAQIIAARLGVPPSMSSKASLPTNRIAANFANVAQRPPMGMAFPRPPMPRPPGFPVPGSFVAATTMTGSSDPSPGSDNVSSV

Tests used:
[1] = molecular target: T1, MORC6-3xFlag (Arabidopsis thaliana); assay: affinity purification with mass spectrometry; 3 g flower tissue of transgenic plants; Lysis buffer (50 mM Tris pH 7.6, 150 mM NaCl, 5 mM MgCl2, 10% glycerol, 0.1% NP-40, 0.5 mM DTT); antibody agarose, 4°C, 2.5 h, four washes, elution with 3xFlag peptide; total eluted proteins or silver-stained bands cut from the SDS-PAGE gel; LTQ mass spectrometer, Mascot
[2] = molecular target: T2, SUVH2-3xMyc (Arabidopsis thaliana); assay: as above

Molecule	binding [1]	binding [2]
… IN MERISTEM … 3 (DMS3), endogenous (from UniProt Q94A79 1-420)	no binding	binds
B1	–	binds
B2	binds	–
B3	binds	–
B4	binds	–
B5	binds	–

— article PMC3898904
